According to PMC4891109:
No constants are given. Whether binding was seen depends on the method and setting. Binding seen in cells or lysates may run through a third protein. Some results given as binding are weak or reduced against the parent protein; the word gives no strength.

What was measured:
[1] = target: CD47 (human (endogenous in MDA-MB-231)) (UniProt Q08722); experiment: co-IP; as a1, but MDA-MB-231 cells pretreated with the CD47 antibody B6H12 (1 μg/ml) for 15 min before lysis
[2] = target: CD47 (human (endogenous in MDA-MB-231)) (UniProt Q08722); experiment: co-IP; endogenous proteins from MDA-MB-231 cell extracts (NP-40 lysis buffer); EGFR or CD47 antibody on Dynabeads Protein G, western blot for EGFR and CD47; cells with or without EGF
[3] = target: epidermal growth factor receptor (human (endogenous in MDA-MB-231)) (UniProt P00533); experiment: as above

epidermal growth factor receptor (from UniProt P00533 25-1210)
binding [1]: binds | binding [2]: binds

CD47 (from UniProt Q08722 19-323) (receptor)
binding [3]: binds
